Consider 1 substance from patent publication US8758781B2, “Tissue scaffolds derived from forestomach extracellular matrix” (Mesynthes Ltd., priority 2008, dated 2014).

A short description of the data set: Total GAGs, Blyscan dye-binding assay (with or without heparan lyase digestion).

As to Heparan sulfate, the “Total GAGs by Blyscan assay” value turned out to be 15 µg/mL (lyase treatment: 24 hours), 13 µg/mL (lyase treatment: 48 hours) and 52 µg/mL (lyase treatment: Untreated).
